Experimental findings from PubChem BioAssay AID330 (DTP/NCI, 2004) are described below.

Structures are written as SMILES. The list does not hold the whole screen: it gathers tests that were run many times, whatever their T/C, doses with no T/C, and many T/C values between a quarter and a half above the control. Other doses and runs of a compound stand elsewhere. T/C is the treated group as % of the vehicle group. Some doses have a count of surviving animals in place of a T/C: the source holds a T/C of zero for them, seemingly a mark for toxic or unscored doses. Some doses without a T/C left all or most animals alive at the check, yet need not have been tolerated: survival well below the control is almost never listed, so the zero probably covers shortened survival too. Counts of survivors are from the toxicity check (mostly the fifth day) where no day follows; animals may have died later. Schedules are NCI's codes, read here as Q, the interval in days (D) or hours (H), X, the number of doses. Some entries hold several experiments; their values stand side by side, smallest first. For survival time, the PubChem record calls one and a half times the control and up active, and a quarter to a half above the control has no call in these data; cut-offs in other NCI protocols can differ. Some T/C values are followed by the survivors on the day toxicity was checked, most often the fifth; where none is given, no animal had died by that day.

The subject of this test is P388 leukemia ip, CD2F1 mice, survival T/C. Kind of test: NCI In Vivo Anticancer Drug Screen. Data for tumor model P388 Leukemia (intraperitoneal) in CD2F1 (CDF1) mice. The note with it: T/C endpoint: median survival time, higher T/C = longer survival.
The mark [1] stands for this setting: dose: 120.0 mg/kg/injection, schedule: Q01DX005 (ip), vehicle: saline with Tween-80.
[2] abbreviates: dose: 200.0 mg/kg/injection, schedule: Q01DX009 (ip), vehicle: saline.
The mark [3] stands for this setting: dose: 25.0 mg/kg/injection, schedule: Q01DX009 (ip), vehicle: saline.
The mark [4] stands for this setting: dose: 50.0 mg/kg/injection, schedule: Q01DX009 (ip), vehicle: saline.
Setting [5] is: dose: 120.0 mg/kg/injection, schedule: Q01DX005 (ip), vehicle: saline.
Where [6] appears, read: dose: 240.0 mg/kg/injection, schedule: Q01DX005 (ip), vehicle: saline.
Where [7] appears, read: dose: 200.0 mg/kg/injection, schedule: Q01DX005 (ip), vehicle: Klucel (hydroxypropylcellulose) (HPC).
Where [8] appears, read: dose: 200.0 mg/kg/injection, schedule: Q01DX005 (ip), vehicle: saline with Tween-80.
The mark [9] stands for this setting: dose: 400.0 mg/kg/injection, schedule: Q01DX001 (ip), vehicle: saline with Tween-80.
[10] abbreviates: dose: 400.0 mg/kg/injection, schedule: Q04DX003 (ip), vehicle: saline with Tween-80.

As for `N#Cc1ccc(NC(=O)Nc2ccc([N+](=O)[O-])cc2Cl)cc1`, the survivor count reads like this: (dose: 60.0 mg/kg/injection, schedule: Q01DX005 (ip), vehicle: saline with Tween-80) 6 of 6; under setting [1], 6 of 6.
For `CN1COc2ccc3ccccc3c2C1`, the survivor count under setting [2] is listed as 0 of 6.
For the molecule `CCCCCCCCSc1nc2ccc(N=Cc3ccccc3O)cc2s1`, the survivor count (dose: 100.0 mg/kg/injection, schedule: Q01DX009 (ip), vehicle: Klucel (hydroxypropylcellulose) (HPC)) is recorded as 6 of 6.
With `COc1ccc(N=C2C(=Nc3ccc(OC)cc3)N(S(=O)(=O)c3ccc(C)cc3)C(=S)N2c2ccccc2)cc1`, for the setting “dose: 200.0 mg/kg/injection, schedule: Q01DX005 (ip), vehicle: Klucel + Tween-80”, the survivor count is listed as 6 of 6.
On to `CCCCCCCCCCC[CH2][Sn](=[S])[CH2]CCCCCCCCCCC`, for which the T/C is, setting by setting: under setting [3], 89 and 100 % of control; under setting [4], 91, 92, 95, 101 % of control; (dose: 100.0 mg/kg/injection, schedule: Q01DX009 (ip), vehicle: saline) 89 [5 of 6 alive], 93, 95, 103, 109 % of control; under setting [2], 89, 92, 95, 96, 133 % of control. The survivor count is 6 of 6 under setting [3] and 6 of 6 under setting [4].
As to `COc1cc2c(cc1OC)C(CCCCCCCC1NCCc3cc(OC)c(OC)cc31)NCC2` (stereo unspecified), the survivor count runs as follows: (dose: 100.0 mg/kg/injection, schedule: Q01DX005 (ip), vehicle: saline) 1 of 6; (dose: 200.0 mg/kg/injection, schedule: Q01DX005 (ip), vehicle: saline) 0 of 6.
`CCOC(=O)CN1C(=O)S/C(=C2\C(=O)N(C)c3ccc(Br)cc32)C1=O`: the survivor count (dose: 100.0 mg/kg/injection, schedule: Q04DX002 (ip), vehicle: Klucel (hydroxypropylcellulose) (HPC)) is reported as 6 of 6; the survivor count (dose: 200.0 mg/kg/injection, schedule: Q04DX002 (ip), vehicle: Klucel (hydroxypropylcellulose) (HPC)) was 6 of 6; the survivor count (dose: 400.0 mg/kg/injection, schedule: Q04DX002 (ip), vehicle: Klucel (hydroxypropylcellulose) (HPC)) is 6 of 6.
Consider `FC(F)(F)SN1CN(SC(F)(F)F)CN(SC(F)(F)F)CN(SC(F)(F)F)C1`, for which the survivor count under setting [5] is reported as 5 of 6.
Regarding `CN(C)CC[Si](C)(C)N(C)C`, the survivor count under setting [6] is reported as 0 of 6.
As for `CC1C(=O)OC2C1CCC1(C)C3(C)C(=O)C=CC213` (stereo unspecified), the survivor count runs as follows: (dose: 120.0 mg/kg/injection, schedule: Q01DX005 (ip), vehicle: Klucel (hydroxypropylcellulose) (HPC)) 4 of 6; (dose: 240.0 mg/kg/injection, schedule: Q01DX005 (ip), vehicle: Klucel (hydroxypropylcellulose) (HPC)) 0 of 6.
In the case of `CCCCCCCCCCN(CCCCCCCCCC)CC(=O)c1ccc2cc(Br)c3ccccc3c2c1`, the survivor count under setting [7] was 3 of 5.
Consider `C/C(=N\N)c1cnc(NN)nc1C`, for which the survivor count (dose: 30.0 mg/kg/injection, schedule: Q01DX005 (ip), vehicle: saline) is on record as 3 of 6; the survivor count (dose: 60.0 mg/kg/injection, schedule: Q01DX005 (ip), vehicle: saline) was 3 of 6; the survivor count under setting [5] is 0 of 6; the survivor count under setting [6] is given as 0 of 6.
As to `CN(C)CCCN1C(=O)C2CCC(C)(C1=O)C2(C)C` (stereo unspecified), the survivor count under setting [8] is 0 of 6.
`CC1=Nc2ccc(C)cc2N=C(C)C1`: the survivor count under setting [2] was 3 of 6.
For `CC1CC(=O)c2cc3oc(=O)n(C)c3cc21` (stereo unspecified), the survivor count under setting [7] is listed as 6 of 6.
Regarding `Nc1nc(N)c2c(ccc3nc(-c4ccccc4)c(-c4ccccc4)nc32)n1`, the survivor count under setting [9] was 6 of 6.
As to `COc1cc(C(O)C2C(=O)OCC2C2(c3ccc4c(c3)OCO4)SCCCS2)cc(OC)c1OC` (stereo unspecified), the survivor count under setting [9] was 3 of 6.
`c1ccc2c(C3CCCN4CCCCC34)c[nH]c2c1` (stereo unspecified): the survivor count by setting is: (dose: 100.0 mg/kg/injection, schedule: Q04DX002 (ip), vehicle: saline with Tween-80) 1 of 6 and 3 of 6; (dose: 200.0 mg/kg/injection, schedule: Q04DX002 (ip), vehicle: saline with Tween-80) 0 of 6; (dose: 400.0 mg/kg/injection, schedule: Q04DX002 (ip), vehicle: saline with Tween-80) 0 of 6.
On to `CC(=O)O[C@H]1C(=O)[C@]2(C)[C@@H](OC(C)=O)CC3OC[C@@]3(OC(C)=O)[C@H]2[C@H](OC(=O)c2ccccc2)[C@]2(O)C[C@H](OC(=O)[C@H](OC(C)=O)[C@@H](NC(=O)c3ccccc3)c3ccccc3)C(C)=C1C2(C)C` (stereo partly specified), for which the T/C is 132 % of control (dose: 20.0 mg/kg/injection, schedule: Q01DX005 (ip), vehicle: DMSO) and 137 % of control (dose: 200.0 mg/kg/injection, schedule: Q01DX005 (ip), vehicle: DMSO).
On to `C/C(=N/NS(=O)(=O)c1c(C(C)C)cc(C(C)C)cc1C(C)C)c1cccc2c1OCO2`, for which the survivor count runs as follows: under setting [1], 6 of 6; (dose: 240.0 mg/kg/injection, schedule: Q01DX005 (ip), vehicle: saline with Tween-80) 6 of 6.
On to `COc1cc(OC)c2c(=O)c3ccc([N+](=O)[O-])cc3n(C)c2c1`, for which the survivor count under setting [9] was 3 of 6.
Consider `C#CCOC(=O)c1ccc(C(=O)OCC#C)cc1`, for which the survivor count under setting [10] is given as 4 of 6.
On to `C(#Cc1ccncc1)c1ccncc1`, for which the survivor count under setting [8] was 4 of 6.
On to `O=P(OCc1ccccc1)(N(CCCl)CCCl)N1CCN(P(=O)(OCc2ccccc2)N(CCCl)CCCl)CC1` (stereo unspecified), for which the T/C reads like this: (dose: 50.0 mg/kg/injection, schedule: Q01DX009 (ip), vehicle: saline with Tween-80) 141 % of control; (dose: 200.0 mg/kg/injection, schedule: Q04DX003 (ip), vehicle: saline with Tween-80) 145 % of control. Also, the survivor count by setting is: (dose: 200.0 mg/kg/injection, schedule: Q01DX009 (ip), vehicle: saline with Tween-80) 1 of 6; under setting [10], 6 of 6.
Consider `COc1ccc2nc3cc(Cl)ccc3c(NCCCN3CCCC3)c2n1`, for which the survivor count is, setting by setting: (dose: 50.0 mg/kg/injection, schedule: Q01DX009 (ip), vehicle: water) 3 of 6; (dose: 100.0 mg/kg/injection, schedule: Q01DX009 (ip), vehicle: water) 1 of 6; (dose: 200.0 mg/kg/injection, schedule: Q01DX009 (ip), vehicle: water) 0 of 6.
On to `Cc1cc2nc3c(C4OCC(O)C4O)nn(-c4ccccc4)c3nc2cc1C` (stereo unspecified), for which the survivor count is, setting by setting: (dose: 12.5 mg/kg/injection, schedule: Q01DX005 (ip), vehicle: Klucel (hydroxypropylcellulose) (HPC)) 5 of 5 and 6 of 6; (dose: 25.0 mg/kg/injection, schedule: Q01DX005 (ip), vehicle: Klucel (hydroxypropylcellulose) (HPC)) 5 of 5; (dose: 50.0 mg/kg/injection, schedule: Q01DX005 (ip), vehicle: Klucel (hydroxypropylcellulose) (HPC)) 6 of 6.
Take `O=C1NC2(CCCCC2)C(=O)N1CCCCCN(CCCl)CCCl`: the T/C by setting is: (dose: 6.0 mg/kg/injection, schedule: Q01DX005 (ip), vehicle: saline) 131 % of control; (dose: 10.0 mg/kg/injection, schedule: Q01DX005 (ip), vehicle: saline) 133 % of control; (dose: 12.0 mg/kg/injection, schedule: Q01DX005 (ip), vehicle: saline) 137 % of control; (dose: 20.0 mg/kg/injection, schedule: Q01DX005 (ip), vehicle: saline) 136 % of control; (dose: 24.0 mg/kg/injection, schedule: Q01DX005 (ip), vehicle: saline) 149 % of control [5 of 6 alive]. For the setting “dose: 80.0 mg/kg/injection, schedule: Q01DX005 (ip), vehicle: saline”, the survivor count is 2 of 6.
